Two molecules from PMC10889294 can be followed below.

No constants are given. Whether binding was seen depends on the method and setting. In cells and extracts the contact can be indirect. Binding can be weak; no strength is given. For some assays here: Tags and fused reporters may be left off the sequences shown.

One test deals with T1, Full-length THSD1-FLAG (UniProt Q9NS62).
T1 sequence: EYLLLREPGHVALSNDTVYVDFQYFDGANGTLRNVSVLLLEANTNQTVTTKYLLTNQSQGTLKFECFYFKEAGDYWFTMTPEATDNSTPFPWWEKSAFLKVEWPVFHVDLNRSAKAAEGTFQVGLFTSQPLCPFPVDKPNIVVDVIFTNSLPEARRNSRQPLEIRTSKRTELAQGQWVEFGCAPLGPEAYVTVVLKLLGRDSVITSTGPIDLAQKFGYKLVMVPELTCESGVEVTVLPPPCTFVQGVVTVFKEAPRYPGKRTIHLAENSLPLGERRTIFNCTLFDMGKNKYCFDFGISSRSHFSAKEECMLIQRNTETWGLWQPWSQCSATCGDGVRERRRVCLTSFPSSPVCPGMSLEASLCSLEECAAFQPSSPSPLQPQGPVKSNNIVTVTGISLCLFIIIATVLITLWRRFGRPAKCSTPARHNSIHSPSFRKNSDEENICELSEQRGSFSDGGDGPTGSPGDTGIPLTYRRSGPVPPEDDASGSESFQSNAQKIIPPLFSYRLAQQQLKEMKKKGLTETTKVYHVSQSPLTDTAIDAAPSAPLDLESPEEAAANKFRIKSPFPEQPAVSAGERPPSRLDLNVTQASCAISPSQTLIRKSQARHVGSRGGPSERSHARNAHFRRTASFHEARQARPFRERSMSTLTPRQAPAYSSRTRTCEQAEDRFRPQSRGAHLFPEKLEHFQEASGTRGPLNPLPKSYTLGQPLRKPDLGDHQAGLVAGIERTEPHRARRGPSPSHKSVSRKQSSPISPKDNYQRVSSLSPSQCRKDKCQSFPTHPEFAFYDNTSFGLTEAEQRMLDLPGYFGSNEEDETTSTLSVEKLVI
Nature of the test: co-IP; anti-FLAG immunoprecipitation from lysates of HBMECs with THSD1-FLAG induced by doxycycline (100 ng/mL, 48 h); Western blot for talin and THSD1. A general note: Immunoblotting shows a protein as a band on a membrane.

In test [1] the target is talin, endogenous (human (endogenous in HBMECs)). Description: co-IP; immunoprecipitation with anti-talin antibodies from lysates of HBMECs treated with control or talin siRNA (5 nM, 48 h); Western blot for THSD1; both proteins endogenous.

With “talin, endogenous (human (endogenous in HBMECs))”, the binding entry with Full-length THSD1-FLAG was “binds”.

B1: Thrombospondin Type 1 Domain-Containing Protein 1 (THSD1), endogenous (protein, UniProt Q9NS62 25-852)
chain: T1 sequence
Consider B1, for which the binding result in test [1] is recorded as “binds”.
